# Where “and” joins values, the source holds several entries; their conditions need not be identical. Equal entries are not always repeated. In all, about 580,000 compounds went through this assay and about 6,100 (1.1%) were called active. Inconclusive means that the source gave no clear call. Such entries were picked first, then a sample of the others. Calls come from the whole dose curve; as a rule, active = well fitted inhibition curve with a large enough effect; inconclusive = small, poorly fitted or top-dose-only effect, or another doubt; inactive = no such curve, though single readings can be large or run the other way. Potencies beside an inconclusive call are fits to weak or partial responses and may not hold up.
# Amino acid sequences for entries named in this document (tags omitted).
# UniProt P18054, whole entry, looked up: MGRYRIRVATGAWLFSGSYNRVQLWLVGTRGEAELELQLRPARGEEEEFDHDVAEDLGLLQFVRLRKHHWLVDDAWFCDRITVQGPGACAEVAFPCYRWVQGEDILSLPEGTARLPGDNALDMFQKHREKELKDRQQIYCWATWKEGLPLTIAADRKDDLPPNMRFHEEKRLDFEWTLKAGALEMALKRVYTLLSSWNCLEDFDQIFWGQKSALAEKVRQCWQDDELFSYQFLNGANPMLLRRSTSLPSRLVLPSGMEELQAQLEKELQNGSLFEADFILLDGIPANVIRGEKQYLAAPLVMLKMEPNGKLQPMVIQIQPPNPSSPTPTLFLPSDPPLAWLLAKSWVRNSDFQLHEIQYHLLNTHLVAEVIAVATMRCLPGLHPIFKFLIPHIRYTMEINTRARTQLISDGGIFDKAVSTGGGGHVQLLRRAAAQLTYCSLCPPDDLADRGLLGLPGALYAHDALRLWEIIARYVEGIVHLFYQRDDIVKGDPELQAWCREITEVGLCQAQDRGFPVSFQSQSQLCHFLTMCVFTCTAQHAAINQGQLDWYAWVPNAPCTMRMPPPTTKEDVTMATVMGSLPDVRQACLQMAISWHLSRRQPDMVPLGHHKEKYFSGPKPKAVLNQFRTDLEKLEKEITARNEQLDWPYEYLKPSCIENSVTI
# Molecular target: Polyunsaturated fatty acid lipoxygenase ALOX12 (Homo sapiens) (UniProt P18054)
# Test: Primary qHTS assay for inhibitors of human arachidonate 12S-lipoxygenase (ALOX12): Round 2
# Conditions: purified 12hLO, xylenol orange hydroperoxide absorbance; activity change, negative = inhibition: at 108 µM (top of the series) unless noted
# Method in brief: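 Hydroperoxide product was detected by ferrous iron/xylenol orange as the 573 to 405 nm absorbance ratio. Arachidonic acid at 40 uM (final) was turned over for 30 min at room temperature by 150 nM human 12hLO, pH 7.0 Hepes buffer, after 15 min compound preincubation.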
# % is set by controls: 0 for no effect and ±100 for the full control effect; potency is the fitted concentration of half-maximal effect.
SMILES,"activity change, negative = inhibition",Potency
Cc1ccsc1C=Nc1ccc(-c2ccc(N=Cc3sccc3C)cc2)cc1,inactive: -15.7%,–
CCc1ccccc1NS(=O)(=O)c1c(C)[nH]c(C)c1C(=O)N1CCCC1,–,"inconclusive: 112 µM [inhibitor, single point]"
Cc1ccc(S(=O)(=O)Nc2nc(N)n(-c3ccccc3)n2)cc1,–,"inconclusive: 112 µM [inhibitor, partial curve, poor fit]"
O=C(c1cc(=O)c2cc(Cl)cc(Cl)c2o1)N1CCN(Cc2ccccc2)CC1,–,"inconclusive: 89.1 µM [inhibitor, partial curve, poor fit]"
CNCc1ccccc1Sc1cc(O)ccc1O,–,"inconclusive: 5.62 µM [inhibitor, partial curve, poor fit]"
c1ccc2c(c1)CCCC2NC1=NCCC1 (stereo not given),–,"inconclusive: 126 µM [inhibitor, single point]"
C=CCNC(=S)NC(=O)c1csc([N+](=O)[O-])c1,–,"inconclusive: 5.62 µM [inhibitor, full curve, poor fit]"
Cc1cccc2c(C(=O)N3CCCCC3)cc(-c3ccccc3)nc12,–,"inconclusive: 126 µM [inhibitor, single point]"
FC(F)(F)c1ccc(/C=N/Nc2ccc(Cl)cc2)cc1,–,active: 7.08 µM
N#CC(C#N)=CNc1nc(-c2ccc3c(c2)CCCC3)cs1,–,"inconclusive: 56.2 µM [inhibitor, full curve, poor fit]"
COc1cc(NS(=O)(=O)c2ccc(NC(=S)NC(=O)c3ccc(F)c(F)c3)cc2)nc(OC)n1,–,active: 12.6 µM
CCN(CC)C(=O)Cn1c(=O)c2c(ncn2Cc2ccco2)n(Cc2ccccc2)c1=O,–,"inconclusive: 44.7 µM [inhibitor, partial curve, poor fit]"
CCc1ccc2c(CN(C)Cc3ccccc3OC)cc(=O)oc2c1,–,"inconclusive: 0.398 µM [inhibitor, full curve, poor fit]"
COc1ccc(S(=O)(=O)c2c(O)c3ccc(C(=O)NCc4ccc(F)cc4)cc3[nH]c2=O)cc1,–,"inconclusive: 141 µM [inhibitor, single point] and inconclusive: 35.5 µM [inhibitor, partial curve, poor fit]"
CCN(CC)CCCCNc1ncc2cc(-c3cc(OC)cc(OC)c3)c(NC(=O)NC(C)(C)C)nc2n1,–,"inconclusive: 6.85 µM [inhibitor, partial curve, poor fit] and inconclusive: 10 µM [inhibitor, full curve, poor fit]"
Cc1nn(CC(=O)O)c(=O)c2nc(-c3ccccc3)sc12,–,"inconclusive: 15.8 µM [inhibitor, single point]"
O=C(Nc1cccc(S(=O)(=O)N2CCCCC2)c1)c1ccc2ncsc2c1,–,"inconclusive: 70.8 µM [inhibitor, partial curve, poor fit]"
Cc1c(C(=O)O)sc(=S)n1CCOc1ccccc1,–,"inconclusive: 50.1 µM [inhibitor, partial curve, poor fit]"
CCCCCCCCCCCCCC(=O)O[C@H](CC(=O)O)C[N+](C)(C)C,–,"inconclusive: 31.6 µM [inhibitor, single point]"
Cc1cccnc1NC(=O)CNC(=O)c1cccs1,inactive: 4.26%,–

SMILES,"activity change, negative = inhibition",Potency
COc1ccccc1CNC(=O)c1ccc2nc(C)c(N(C)Cc3ccc(NC(C)=O)cc3)n2c1,–,"inconclusive: 112 µM [inhibitor, partial curve, poor fit]"
O=C(NCCN1CCC(n2c(=O)[nH]c3ccccc32)CC1)c1cccs1,–,"inconclusive: 50.1 µM [inhibitor, partial curve, poor fit]"
[O-]/[N+](=C/c1ccco1)c1ccccc1,–,"inconclusive: 39.8 µM [inhibitor, partial curve, poor fit]"
CCSC1=C(C#N)C(=O)n2c1cc1c2CCCC1,–,"inconclusive: 56.2 µM [inhibitor, partial curve, poor fit]"
O=C(C[n+]1cc(Br)cc2ccccc21)c1ccc(Br)cc1,–,"inconclusive: 35.5 µM [inhibitor, partial curve, poor fit]"
Cc1cc(=O)oc2cc(OCC(=O)c3ccc(OC(F)F)cc3)ccc12,inactive: 0.169%,–
CCc1[nH]nc(C(=O)N2CCC3(CC2)C(=O)NCCN3C)c1C,inactive: 15.7%,–
CS(=O)(=O)N1CCCC(C(=O)Nc2c(F)cccc2F)C1 (stereo not given),inactive: 0.878%,–
CC(C)CC(=O)NCC1CC2c3ccccc3C1c1ccccc12 (stereo not given),–,"inconclusive: 126 µM [inhibitor, single point]"
COc1cccc(CC(=O)N2[C@@H]3CC[C@H]2CC(NC(=O)c2ccncc2)C3)c1 (stereo not given in full),inactive: 29.8%,–
Cc1ccc(C(=O)NC2=NC(c3ccc(C)cc3)CC(=O)N2)cc1 (stereo not given),–,"inconclusive: 56.2 µM [inhibitor, partial curve, poor fit]"
CC(=O)Nc1ccc(/C(N=Nc2ccccc2)=N/N=C(N)N)cc1,–,active: 39.8 µM
CCn1c(=N)n(CC(O)COc2cccc(C)c2)c2ccccc21 (stereo not given),–,"inconclusive: 79.4 µM [inhibitor, partial curve, poor fit]"
CCOC(CNC(=O)c1[nH]c(C(F)(F)F)nc1-c1ccccc1)OCC,–,"inconclusive: 100 µM [inhibitor, partial curve, poor fit]"
O=C(c1[nH]ncc1Cl)N1CCCC(CCc2c(F)cccc2F)C1 (stereo not given),inactive: 62.7%,–
O=CN1CCN(C(C(=O)O)c2cn(Cc3ccccc3)c3ccc(C(=O)O)cc23)CC1 (stereo not given),–,"inconclusive: 1.58 µM [inhibitor, full curve, poor fit]"
CCNc1nc(NCC)n2c(SCC(=O)Nc3ccc(Br)cc3F)nnc2n1,–,"inconclusive: 44.7 µM [inhibitor, partial curve, poor fit]"
CCC(C)(C)n1nnnc1C(c1ccc(OC)c(OC)c1)N1CCN(c2cccc(OC)c2)CC1 (stereo not given),inactive: -6.25%,–
O=[N+]([O-])c1ccc(CN2C[C@H](O)C[C@H]2c2nc(-c3ccc(C(F)(F)F)cc3)no2)cc1,–,"inconclusive: 31.6 µM [inhibitor, full curve, poor fit]"
COc1cc(OC)c(OC)cc1CN1CCN(Cc2cccc(F)c2)CC1,–,"inconclusive: 1.58 µM [inhibitor, full curve, poor fit]"

# Look-ups from the entries so far:
# Entry of CCC(C)(C)n1nnnc1C(c1ccc(OC)c(OC)c1)N1CCN(c2cccc(OC)c2)CC1 (stereo not given) under activity change, negative = inhibition: inactive: -6.25%
# Entry of COc1ccccc1CNC(=O)c1ccc2nc(C)c(N(C)Cc3ccc(NC(C)=O)cc3)n2c1 under Potency: inconclusive: 112 µM [inhibitor, partial curve, poor fit]
